Reference: paper PMC7242751

Sequences of proteins named here, by UniProt entry; tags and fusion partners are left off. Residues count along the entry.
UniProt P02769, 25-607: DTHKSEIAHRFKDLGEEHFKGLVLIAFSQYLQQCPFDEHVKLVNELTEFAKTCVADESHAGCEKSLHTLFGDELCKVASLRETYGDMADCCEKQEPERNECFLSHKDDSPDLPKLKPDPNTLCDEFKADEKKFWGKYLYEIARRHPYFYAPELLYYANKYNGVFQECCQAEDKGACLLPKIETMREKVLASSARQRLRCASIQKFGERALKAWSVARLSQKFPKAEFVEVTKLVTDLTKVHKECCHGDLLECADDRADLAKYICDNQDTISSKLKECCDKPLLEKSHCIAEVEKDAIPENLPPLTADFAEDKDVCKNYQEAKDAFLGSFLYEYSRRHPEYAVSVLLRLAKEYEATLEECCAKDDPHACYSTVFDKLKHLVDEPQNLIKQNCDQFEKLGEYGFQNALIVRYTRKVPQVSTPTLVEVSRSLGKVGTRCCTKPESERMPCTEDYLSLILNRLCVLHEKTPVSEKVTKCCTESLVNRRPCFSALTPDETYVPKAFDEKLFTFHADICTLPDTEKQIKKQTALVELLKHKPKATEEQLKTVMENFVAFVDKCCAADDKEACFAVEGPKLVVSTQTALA

Experiments:
[1] = target: BSA (bovine) (UniProt P02769); assay: competition (NALFA); conditions: 5-15 mg/mL BSA vs AuNP-CA125; KD in binding buffer (composition not restated), 2 h at RT; pH not stated; commercial protein; single-stranded DNA
[2] = target: CA125 (native antigen) (human) (UniProt Q8WXI7); assay: membrane binding, elution and agarose gel; conditions: KD in binding buffer (composition not restated), 2 h at RT, pH not stated, native protein, single-stranded DNA
[3] = target: BSA (bovine) (UniProt P02769); assay: dot ELASA; conditions: 4% BSA negative control; KD in binding buffer (composition not restated), 2 h at RT; pH not stated; commercial protein; single-stranded DNA

“TAGGGAAGAGAAGGACATATGATTTTAGGGAAGAGAAGGACTTTTATGCCGCCTTGACTAGTACATGACCACTTGA [Apt 2.26]”: no binding [1]; binds ([2]; 100 mM NaCl, 5 mM MgCl2); binds ([2]; MilliQ water (positive control)).

“TAGGGAAGAGAAGGACATATGATTTTAGGGAAGAGAAGGACTTTTATGCCGCCTTGACTAGTACATGACCACTTGA [biotinylated Apt 2.26]”: no binding [3].

For some of these results: Negatives hold for the conditions tested. For some of these results: At least one verdict rests on a figure or table, not on a statement of the authors. For some of these results: For at least one entry, the source does not settle the construct or the ends of the probe.
